Patent US20240351995A1, “(3-PIRYDYL)-QUINAZOLINE” (BASF SE, priority 2021, published 2024)
Some of these results come from one statement about several compounds together.

How the values were obtained:
Botrytis cinerea [1] = experiment: Microtest: activity against the grey mold Botrytis cinerea in the microtiterplate test; assay type: cell-based; settings: 31 ppm; relative to active compound-free control (100%)
Botrytis cinerea [2] = experiment: Green house: preventative fungicidal control of Botrytis cinerea on leaves of green pepper; assay type: in vivo; settings: 250 ppm, sprayed one day before inoculation, assessed after 5 days, untreated plants 80% infected
Sclerotinia sclerotiorum [3] = experiment: Green house: preventative fungicidal control of white mold on oilseed rape; settings: 100 g/ha, sprayed one day before inoculation, assessed after 14 days, untreated plants 80% infected
Sclerotinia sclerotiorum [4] = experiment: Green house: preventative fungicidal control of white mold on soybeans; settings: 250 ppm, sprayed one day before inoculation, assessed after 6 days, untreated plants 80% infected
Septoria tritici = experiment: Microtest: activity against leaf blotch on wheat caused by Septoria tritici; assay type: cell-based; settings: 31 ppm; relative to active compound-free control (100%)

Row | Structure (SMILES) | growth of the pathogen (relative growth in %) (Botrytis cinerea [1]) | growth of the pathogen (% diseased leaf area) (Botrytis cinerea [2]) | growth of the pathogen (% diseased leaf area) (Sclerotinia sclerotiorum [3]) | growth of the pathogen (% diseased leaf area) (Sclerotinia sclerotiorum [4]) | growth of the pathogen (relative growth in %) (Septoria tritici)
1 | Cc1cc(C2=NC(C)(c3ccccc3)Nc3c(F)cccc32)cnc1C(F)F (racemic) [Ex-43] | up to 14% | at most 15% |  |  | 
2 | Cc1cc(C2=NC(C)(CC#N)N(C)c3c(F)cccc32)cnc1C(F)F (racemic) [Ex-149] | up to 14% | at most 15% |  |  | 
3 | Cc1cc(C2=NC(C)(C)N(C#N)c3c(F)cccc32)cnc1C(F)F [Ex-11] | up to 14% | at most 15% |  |  | 
4 | Cc1cc(C2=NC(C)(C)N(C#N)c3c(F)cccc32)cnc1C [Ex-34] | up to 14% | at most 15% |  |  | 
5 | Cc1cc(C2=NC(C)(C)N(C#N)c3cc(Cl)ccc32)cnc1C(F)F [Ex-39] | up to 14% | at most 15% |  |  | 
6 | CCCCN1c2ccccc2C(c2cnc(C)c(C)c2)=NC1(C)C [Ex-45] | up to 14% | at most 15% | at most 13% | at most 21% | 
7 | CCCN1c2ccccc2C(c2cnc(C)c(C)c2)=NC1(C)C [Ex-46] | up to 14% | at most 15% |  |  | 
8 | Cc1cc(C2=NC(C)(C)N(C#N)c3c(C)cccc32)cnc1C(F)F [Ex-54] | up to 14% | at most 15% |  |  | 
9 | Cc1cc(C2=NC(C)(C)N(Cc3ccccc3)c3ccccc32)cnc1C [Ex-62] | up to 14% | at most 15% |  |  | up to 20%
10 | Cc1cc(C2=NC(C)(C)N(Cc3ccccc3)c3c(F)cccc32)cnc1C [Ex-63] | up to 14% | at most 15% |  |  | up to 20%
11 | C#CCc1cccc2c1N(C)C(C)(C)N=C2c1cnc(C(F)F)c(C)c1 [Ex-80] | up to 14% |  | at most 13% | at most 21% | 
12 | C#Cc1cccc2c1NC(C)(C)N=C2c1cnc(C(F)F)c(C)c1 [Ex-81] | up to 14% |  | at most 13% | at most 21% | up to 20%
13 | Cc1ccc2c(c1)N(C#N)C(C)(C)N=C2c1cnc(C(F)F)c(C)c1 [Ex-89] | up to 14% | at most 15% |  |  | 
14 | C=CCN1c2c(F)cccc2C(c2cnc(C)c(C)c2)=NC1(C)C [Ex-105] | up to 14% |  |  |  | up to 20%
15 | C#CCN1c2c(F)cccc2C(c2cnc(C)c(C)c2)=NC1(C)C [Ex-106] | up to 14% |  |  |  | up to 20%
16 | C#CCN1c2ccccc2C(c2cnc(C)c(C)c2)=NC1(C)C [Ex-107] | up to 14% | at most 15% |  |  | 
17 | COCCN1c2c(F)cccc2C(c2cnc(C)c(C)c2)=NC1(C)C [Ex-113] | up to 14% |  |  |  | up to 20%
18 | CC#CCN1c2c(F)cccc2C(c2cnc(C)c(C)c2)=NC1(C)C [Ex-115] | up to 14% | at most 15% |  |  | up to 20%
19 | Cc1cc(C2=NC(C)(C)N(CC(F)F)c3c(F)cccc32)cnc1C(F)F [Ex-116] | up to 14% | at most 15% |  | at most 21% | 
20 | Cc1cc(C2=NC(C)(C)N(CC3CC3)c3c(F)cccc32)cnc1C(F)F [Ex-118] | up to 14% |  |  |  | up to 20%
21 | Cc1cc(C2=NC(C)(Cc3ccccc3)N(C)c3c(F)cccc32)cnc1C(F)F (stereo not drawn) [Ex-123] | up to 14% |  |  |  | up to 20%
22 | Cc1cc(C2=NC(C)(C)N(C#N)c3c2ccc(C)c3C)cnc1C(F)F [Ex-125] | up to 14% | at most 15% |  |  | up to 20%
23 | Cc1cc(C2=NC(C)(C)Nc3c2ccc(Cl)c3F)cnc1C(F)F [Ex-127] | up to 14% |  |  |  | up to 20%

Row | Structure (SMILES) | growth of the pathogen (relative growth in %) (Botrytis cinerea [1]) | growth of the pathogen (% diseased leaf area) (Botrytis cinerea [2]) | growth of the pathogen (% diseased leaf area) (Sclerotinia sclerotiorum [3]) | growth of the pathogen (% diseased leaf area) (Sclerotinia sclerotiorum [4]) | growth of the pathogen (relative growth in %) (Septoria tritici)
24 | Cc1cc(C2=NC(C)(C)Nc3c2ccc(Br)c3F)cnc1C(F)F [Ex-129] | up to 14% |  |  |  | up to 20%
25 | CCOC(=O)CN1c2c(F)cccc2C(c2cnc(C(F)F)c(C)c2)=NC1(C)C [Ex-130] | up to 14% | at most 15% |  |  | up to 20%
26 | COCCN1c2c(F)cccc2C(c2cnc(C(F)F)c(C)c2)=NC1(C)C [Ex-132] | up to 14% |  |  |  | up to 20%
27 | COc1ccc2c(c1F)N(C)C(C)(C)N=C2c1cnc(C(F)F)c(C)c1 [Ex-134] | up to 14% | at most 15% |  | at most 21% | 
28 | Cc1cc(C2=NC(C)(C)N(C)c3c2ccc(C)c3C)cnc1C(F)F [Ex-137] | up to 14% |  |  |  | up to 20%
29 | Cc1cc(C2=NC(C)(C)N(CC#N)c3c(F)cccc32)cnc1C(F)F [Ex-141] | up to 14% | at most 15% |  | at most 21% | up to 20%
30 | COC(=O)CN1c2c(F)cccc2C(c2cnc(C(F)F)c(C)c2)=NC1(C)C [Ex-142] | up to 14% | at most 15% |  |  | up to 20%
31 | Cc1cc(C2=NC(C)(C)N(CC3OCCO3)c3c(F)cccc32)cnc1C(F)F [Ex-144] | up to 14% | at most 15% |  |  | 
32 | Cc1cc(C2=NC(C)(C)N(C)c3c2ccc(Cl)c3F)cnc1C(F)F [Ex-145] | up to 14% | at most 15% |  |  | up to 20%
33 | Cc1cc(C2=NC(C)(C)N(C#N)c3c2ccc(Cl)c3F)cnc1C(F)F [Ex-146] | up to 14% | at most 15% |  |  | 
34 | Cc1cc(C2=NC(C)(C)N(C)c3c2ccc(C)c3F)cnc1C(F)F [Ex-147] | up to 14% | at most 15% |  |  | up to 20%
35 | Cc1cc(C2=NC(C)(C)N(C#N)c3c2ccc(C)c3F)cnc1C(F)F [Ex-148] | up to 14% | at most 15% |  |  | 
36 | Cc1cc(C2=NC(C)(C)N(C#N)c3c2ccc(F)c3F)cnc1C(F)F [Ex-152] | up to 14% | at most 15% |  |  | 
37 | Cc1cc(C2=NC(C)(C)N(C)c3c2cccc3C(F)F)cnc1C(F)F [Ex-158] | up to 14% | at most 15% |  | at most 21% | up to 20%
38 | Cc1cc(C2=NC(C)(C)N(CC=C(Cl)Cl)c3c(F)cccc32)cnc1C(F)F [Ex-161] | up to 14% | at most 15% |  |  | up to 20%
39 | CN1c2c(F)cccc2C(c2cnc3c(c2)CCCC3)=NC1(C)C [Ex-164] | up to 14% | at most 15% |  |  | up to 20%
40 | CC1(C)N=C(c2cnc3c(c2)CCCC3)c2cccc(F)c2N1C#N [Ex-165] | up to 14% | at most 15% |  |  | up to 20%
41 | C=C(C)CN1c2c(F)cccc2C(c2cnc(C)c(C)c2)=NC1(C)C [Ex-166] | up to 14% |  |  |  | up to 20%
42 | C=C(C)CN1c2ccccc2C(c2cnc(C)c(C)c2)=NC1(C)C [Ex-167] | up to 14% | at most 15% |  |  | up to 20%
43 | C=C(C)CN1c2ccccc2C(c2cnc(C(F)F)c(C)c2)=NC1(C)C [Ex-168] | up to 14% |  |  |  | up to 20%
44 | Cc1cc(C2=NC(C)(C)Nc3c2ccc(F)c3Cl)cnc1C(F)F [Ex-169] | up to 14% |  |  |  | up to 20%
45 | Cc1cc(C2=NC(C)(C)N(C)c3c2ccc(F)c3Cl)cnc1C(F)F [Ex-170] | up to 14% |  |  | at most 21% | up to 20%
